The record followed here is US20230035403A1, “Method For Determining Responsiveness To Prostate Cancer Treatment” (Janssen Biotech, Inc., priority 2020, published 2023).

The expression values are mRNA levels of the gene; the protein chain is shown to identify it.

This series can be described thus: Expression profiling of prostate neoantigens in tumor and normal tissues (qPCR, Fluidigm Biomark). The arrangement: species or system human. The following applies: for qPCR Relative Average Ct: FFPE prostate cancer samples; for qPCR % Positive FFPE: about 90 FFPE tissue samples from prostate cancer; for qPCR Normal Tissue Expression: panel of normal tissues. (In qPCR the cycle at which signal appears reflects the starting amount.)

For VLRFLDLKVRYLHS [AS15], the “qPCR Relative Average Ct” value was 11.4; the “qPCR % Positive FFPE” value is reported as 68.9%; the “qPCR Normal Tissue Expression” value is “Ovary, Mammary”.
Regarding WKFEMSYTVGGPPPHVHARPRHWKTDR [AS18], the “qPCR Relative Average Ct” value is recorded as 6.3; the “qPCR % Positive FFPE” value was found to be 95.6%; the “qPCR Normal Tissue Expression” value was “Ovary, Prostate”.
On to TMPAILKLQKNCLLSL [MS8], for which the “qPCR Normal Tissue Expression” value is on record as “None”.
For the sequence “YEAGMTLGEKFRVGNCKHLKMTRP [Neoantigen P82]”, the “qPCR Relative Average Ct” value is 11 and the “qPCR % Positive FFPE” value stood at 37.0%.
In the case of VAMMVPDRQVHYDFGL [AS3], the “qPCR Relative Average Ct” value came to 10.8, the “qPCR % Positive FFPE” value was determined as 26.7% and the “qPCR Normal Tissue Expression” value is listed as “None”.
For HVVGYGHLDTSGSSSSSSWP [FUS15] the same measures were 13, 8% and “None”.
With “FKKFDGPCGERGGGRTARALWARGDSVLTPALDPQTPVRAPSLTRAAAAV [AS47]”, the “qPCR Relative Average Ct” value was 12.3, the “qPCR % Positive FFPE” value turned out to be 16.7% and the “qPCR Normal Tissue Expression” value is “Ovary”.
On to KRSFAVTERII [AS13], for which the “qPCR Relative Average Ct” value came to 11.1, the “qPCR % Positive FFPE” value is listed as 21.1% and the “qPCR Normal Tissue Expression” value is reported as “None”.
Consider TEISCCTLSSEENEYLPRPEWQLQ [FUS3], for which the “qPCR Relative Average Ct” value is 11, the “qPCR % Positive FFPE” value was determined as 43% and the “qPCR Normal Tissue Expression” value is “Prostate”.
On to NSKMALNSEALSVVSE [FUS5], for which the “qPCR Relative Average Ct” value was 7, the “qPCR % Positive FFPE” value was 14% and the “qPCR Normal Tissue Expression” value is “None”.
The corresponding values for SLYHREKQLIAMDSAI [Neoantigen P22] are 9, 70% and “Prostate”.
On to KIQNKNCPD [AS23], for which the “qPCR Relative Average Ct” value was 13.0; the “qPCR % Positive FFPE” value amounted to 22.0%; the “qPCR Normal Tissue Expression” value was “Ovary, Prostate,”.
With “HYKLIQQPISLFSITDRLHKTFSQLPSVHLCSITFQWGHPPIFCSTNDICVTANFCISVTFLKPCFLLHEASASQ [MS1]”, the “qPCR Normal Tissue Expression” value is listed as “None”.
As for “TGGKSTCSAPGPQSLPSTPFSTYPQWVILITEL [AS57]”, the “qPCR Relative Average Ct” value stood at 7.9, the “qPCR % Positive FFPE” value was 83.3% and the “qPCR Normal Tissue Expression” value is on record as “Prostate”.
For CEERGAAGSLISCE [FUS6], the “qPCR Relative Average Ct” value is 11, the “qPCR % Positive FFPE” value came to 19% and the “qPCR Normal Tissue Expression” value is “None”.
For LVLGVLSGHSGSRL [AS8], the “qPCR Relative Average Ct” value is reported as 12.5, the “qPCR % Positive FFPE” value is on record as 13.3% and the “qPCR Normal Tissue Expression” value is “None”.
With GNTTLQQLGEASQAPSGSLIPLRLPLLWEVRG [AS16], the “qPCR Relative Average Ct” value came out at 10.8, the “qPCR % Positive FFPE” value is reported as 47.8% and the “qPCR Normal Tissue Expression” value is on record as “Ovary”.
As to “RTALTHNQDFSIYRLCCKRGSLCHASQARSPAFPKPVRPLPAPITRITPQLGGQSDSSQPLLTTGRPQGWQDQALRHTQQASPASCATITIPIHSAALGDHSGDPGPAWDTCPPLPLTTLIPRAPPPYGDSTARSWPSRCGPLG [MS3]”, the “qPCR Normal Tissue Expression” value was “None”.
Turning to TEYNQKLQVNQFSESK [FUS2], the “qPCR Relative Average Ct” value amounted to 11, the “qPCR % Positive FFPE” value is 55% and the “qPCR Normal Tissue Expression” value is on record as “Mammary Gland”.
The corresponding values for DYWAQKEKISIPRTHLC [AS6] are 10.0, 33.3% and “None”.
In the case of “YAYKDFLWCFPFSLVFLQEIQICCHVSCLCCICCSTRICLGCLLELFLSRALRALHVLWNGFQLHCQ [MS6]”, the “qPCR Normal Tissue Expression” value is listed as “None”.
On to “DGHSYTSKVNCLLLQDGFHGCVSITGAAGRRNLSIFLFLMLCKLEFHAC [AS55]”, for which the “qPCR Relative Average Ct” value is on record as 8.2, the “qPCR % Positive FFPE” value was 83.3% and the “qPCR Normal Tissue Expression” value is “Prostate”.
For CGASACDVSLIAMDSA [FUS1], the “qPCR Relative Average Ct” value was determined as 9, the “qPCR % Positive FFPE” value came to 72% and the “qPCR Normal Tissue Expression” value is “Prostate”.
For DYWAQKEKGSSSFLRPSC [AS7] the same measures were 11.0, 57.8% and “None”.
Turning to “YEAGMTLGGKILFFLFLLLPLSPFSLIF [Neoantigen P87]”, the “qPCR Relative Average Ct” value was 8.3; the “qPCR % Positive FFPE” value was determined as 85.6%; the “qPCR Normal Tissue Expression” value is “Ovary, Prostate”.
Turning to KMHFSLKEHPPPPCPP [FUS19], the “qPCR Relative Average Ct” value is 13, the “qPCR % Positive FFPE” value was 4% and the “qPCR Normal Tissue Expression” value is “None”.
For “GMECTLGQVGAPSPRREEDGWRGGHSRFKADVPAPQGPCWGGQPGSAPSSAPPEQSLLD [AS51]” the same measures were 10.5, 47.8% and “Ovary”.
Turning to QWQHYHRSGEAAGTPLWRPTRN [AS19], the “qPCR Relative Average Ct” value was found to be 6.3; the “qPCR % Positive FFPE” value amounted to 95.6%; the “qPCR Normal Tissue Expression” value was “Ovary, Prostate”.
GVPGDSTRRAVRRMNTF [Neoantigen P16]: the “qPCR Relative Average Ct” value came out at 9, the “qPCR % Positive FFPE” value was 76% and the “qPCR Normal Tissue Expression” value is “Prostate”.
Consider “NSKMALNSLNSIDDAQLTRIAPPRSHCCFWEVNAP [Neoantigen P35]”, for which the “qPCR Relative Average Ct” value is reported as 13, the “qPCR % Positive FFPE” value was 5% and the “qPCR Normal Tissue Expression” value was “None”.
The corresponding values for “EAFQRAAGEGGPGRGGARRGARVLQSPFCRAGAGEWLGHQSLR [AS41]” are 11.6, 45.6% and “Ovary”.
